{"sequences": {"note": "Protein sequences, listed by entry. Tags and fused reporters are not part of them. Lines headed by an entry give the natural chain unless they say otherwise; changes in a name come on top. Chains listed by the source or under a name are the forms on record and can include a tag or linker.", "UniProt P54105": "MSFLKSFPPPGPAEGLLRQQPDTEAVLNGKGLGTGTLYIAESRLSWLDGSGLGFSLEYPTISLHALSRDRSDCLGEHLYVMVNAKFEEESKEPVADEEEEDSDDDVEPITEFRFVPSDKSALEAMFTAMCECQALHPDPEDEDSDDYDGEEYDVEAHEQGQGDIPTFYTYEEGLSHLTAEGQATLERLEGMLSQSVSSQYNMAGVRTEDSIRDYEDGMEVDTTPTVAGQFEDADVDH", "YFP-tagged 4.1R^135 (Y-4.1R^135) (P11171-2, form named)": "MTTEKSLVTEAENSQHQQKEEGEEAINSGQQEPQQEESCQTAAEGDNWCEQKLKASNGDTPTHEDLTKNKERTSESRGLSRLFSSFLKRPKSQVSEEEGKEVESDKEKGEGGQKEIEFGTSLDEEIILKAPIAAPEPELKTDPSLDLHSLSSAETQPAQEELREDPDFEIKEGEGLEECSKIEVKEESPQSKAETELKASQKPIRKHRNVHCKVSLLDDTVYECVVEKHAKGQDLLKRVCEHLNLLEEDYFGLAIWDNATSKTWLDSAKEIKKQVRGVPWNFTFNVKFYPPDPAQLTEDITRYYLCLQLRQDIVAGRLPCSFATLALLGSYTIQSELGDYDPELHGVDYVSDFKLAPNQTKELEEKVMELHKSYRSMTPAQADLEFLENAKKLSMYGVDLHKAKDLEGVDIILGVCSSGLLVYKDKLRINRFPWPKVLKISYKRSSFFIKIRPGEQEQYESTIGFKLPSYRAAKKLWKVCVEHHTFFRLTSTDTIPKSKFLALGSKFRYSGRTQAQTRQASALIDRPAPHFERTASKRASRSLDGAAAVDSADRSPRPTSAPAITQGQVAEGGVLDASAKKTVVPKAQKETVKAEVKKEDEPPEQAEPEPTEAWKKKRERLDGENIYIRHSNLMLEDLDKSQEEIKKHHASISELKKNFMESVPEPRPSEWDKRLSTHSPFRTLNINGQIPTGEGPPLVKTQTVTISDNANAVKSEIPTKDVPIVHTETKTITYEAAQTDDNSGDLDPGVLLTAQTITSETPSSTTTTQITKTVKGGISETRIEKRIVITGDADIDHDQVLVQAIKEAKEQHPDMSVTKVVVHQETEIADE"}, "source": "paper PMC4189953", "key": {"[1]": {"biological_target": "C-terminally flagged ICln (FLAG-ICln) (human) (UniProt P54105)", "test": "co-IP; HEK cells transfected with pFLAG-ICln or pFLAG-BAP (control), alone or with Y-4.1R chimeras; lysis in 25 mM Tris pH 8, 150 mM NaCl, 10% glycerol, 0.5% Triton X-100; 2 mg supernatant on anti-FLAG M2 affinity gel; elution with FLAG peptide; Western blot"}, "[2]": {"biological_target": "4.1R^135, untagged (from 4.1R^135-IRES-GFP) (human) (UniProt P11171)", "test": "co-IP; HEK cells transfected with 4.1R-IRES-EGFP vectors, alone or with C-ICln or CFP; lysis in CHAPS binding buffer (25 mM HEPES, 150 mM NaCl, 1 mM MgCl2, 0.5% CHAPS); 2 mg supernatant overnight at 4°C with agarose-bound goat anti-actin (I-19) or goat IgG agarose (control); Western blot with anti-4.1R and anti-actin"}, "[3]": {"biological_target": "YFP-tagged 4.1R^135 (Y-4.1R^135) (human) (UniProt P11171)", "test": "FRET or BRET; acceptor photobleaching FRET (FRETeff), HEK cells fixed in 4% PFA, kept in PBS; C-ßactin donor, YFP acceptor; with IRES-DsRED or ICln-IRES-DsRED; ROIs of the thin cytoplasmic layer underlying the plasma membrane"}}, "note": "Results are given in words; binding and its absence hold for the method and conditions named. Binding seen in cells or lysates may run through a third protein. Some binding calls cover weakened binding; strength is not graded here."}
{"substance": "YFP-tagged 4.1R^135 (Y-4.1R^135) (from UniProt P11171-2 1-831)", "values": [{"measurement": "binding", "setting": "[1]", "result": "binds"}]}
{"substance": "CFP-tagged ICln (C-ICln) (from UniProt P54105 1-237)", "values": [{"measurement": "binding", "setting": "[2]", "result": "binds"}]}
{"substance": "ICln, untagged (from ICln-IRES-dsRED) (from UniProt P54105 1-237)", "values": [{"measurement": "binding", "setting": "[3]", "result": "binds"}]}
